# Results reported in PMC4450086.
# The chains behind the UniProt entries cited, without tags or fusion partners. Residues count along the entry.
# UniProt P08581, residues 25-1390: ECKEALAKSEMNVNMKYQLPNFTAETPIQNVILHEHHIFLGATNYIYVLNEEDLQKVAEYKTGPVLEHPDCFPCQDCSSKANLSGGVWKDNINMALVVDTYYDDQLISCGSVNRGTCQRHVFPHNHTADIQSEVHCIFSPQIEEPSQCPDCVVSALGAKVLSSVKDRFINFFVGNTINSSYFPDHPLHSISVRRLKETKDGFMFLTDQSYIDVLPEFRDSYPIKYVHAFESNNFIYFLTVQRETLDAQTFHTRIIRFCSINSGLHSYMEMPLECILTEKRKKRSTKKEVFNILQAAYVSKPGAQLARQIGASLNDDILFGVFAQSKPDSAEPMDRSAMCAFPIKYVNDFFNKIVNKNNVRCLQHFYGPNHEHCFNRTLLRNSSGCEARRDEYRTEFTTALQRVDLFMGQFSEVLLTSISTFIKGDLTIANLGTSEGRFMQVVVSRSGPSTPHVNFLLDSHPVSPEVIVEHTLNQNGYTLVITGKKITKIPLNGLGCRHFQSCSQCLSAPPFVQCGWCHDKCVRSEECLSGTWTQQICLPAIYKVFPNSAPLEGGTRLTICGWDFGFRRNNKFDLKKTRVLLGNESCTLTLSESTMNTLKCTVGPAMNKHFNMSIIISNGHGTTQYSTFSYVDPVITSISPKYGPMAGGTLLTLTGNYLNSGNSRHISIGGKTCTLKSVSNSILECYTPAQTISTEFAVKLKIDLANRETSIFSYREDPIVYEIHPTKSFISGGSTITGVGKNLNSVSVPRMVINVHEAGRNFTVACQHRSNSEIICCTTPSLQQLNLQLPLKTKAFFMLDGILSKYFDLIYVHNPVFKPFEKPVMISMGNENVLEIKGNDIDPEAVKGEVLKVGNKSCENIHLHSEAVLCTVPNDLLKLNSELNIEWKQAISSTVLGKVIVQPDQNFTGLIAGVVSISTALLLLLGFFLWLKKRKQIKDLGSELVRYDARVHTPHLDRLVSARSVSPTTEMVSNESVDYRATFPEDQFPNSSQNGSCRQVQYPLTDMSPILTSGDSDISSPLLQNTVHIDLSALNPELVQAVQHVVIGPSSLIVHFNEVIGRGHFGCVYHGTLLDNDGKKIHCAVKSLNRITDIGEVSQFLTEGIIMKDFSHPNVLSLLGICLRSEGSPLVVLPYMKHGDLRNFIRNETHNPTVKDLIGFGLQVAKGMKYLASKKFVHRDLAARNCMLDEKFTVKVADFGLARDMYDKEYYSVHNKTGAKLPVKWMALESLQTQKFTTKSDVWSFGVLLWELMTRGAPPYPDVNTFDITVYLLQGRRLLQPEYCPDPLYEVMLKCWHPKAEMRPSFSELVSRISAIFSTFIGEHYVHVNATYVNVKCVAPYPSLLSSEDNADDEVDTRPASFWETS
# UniProt P16056, residues 25-1379: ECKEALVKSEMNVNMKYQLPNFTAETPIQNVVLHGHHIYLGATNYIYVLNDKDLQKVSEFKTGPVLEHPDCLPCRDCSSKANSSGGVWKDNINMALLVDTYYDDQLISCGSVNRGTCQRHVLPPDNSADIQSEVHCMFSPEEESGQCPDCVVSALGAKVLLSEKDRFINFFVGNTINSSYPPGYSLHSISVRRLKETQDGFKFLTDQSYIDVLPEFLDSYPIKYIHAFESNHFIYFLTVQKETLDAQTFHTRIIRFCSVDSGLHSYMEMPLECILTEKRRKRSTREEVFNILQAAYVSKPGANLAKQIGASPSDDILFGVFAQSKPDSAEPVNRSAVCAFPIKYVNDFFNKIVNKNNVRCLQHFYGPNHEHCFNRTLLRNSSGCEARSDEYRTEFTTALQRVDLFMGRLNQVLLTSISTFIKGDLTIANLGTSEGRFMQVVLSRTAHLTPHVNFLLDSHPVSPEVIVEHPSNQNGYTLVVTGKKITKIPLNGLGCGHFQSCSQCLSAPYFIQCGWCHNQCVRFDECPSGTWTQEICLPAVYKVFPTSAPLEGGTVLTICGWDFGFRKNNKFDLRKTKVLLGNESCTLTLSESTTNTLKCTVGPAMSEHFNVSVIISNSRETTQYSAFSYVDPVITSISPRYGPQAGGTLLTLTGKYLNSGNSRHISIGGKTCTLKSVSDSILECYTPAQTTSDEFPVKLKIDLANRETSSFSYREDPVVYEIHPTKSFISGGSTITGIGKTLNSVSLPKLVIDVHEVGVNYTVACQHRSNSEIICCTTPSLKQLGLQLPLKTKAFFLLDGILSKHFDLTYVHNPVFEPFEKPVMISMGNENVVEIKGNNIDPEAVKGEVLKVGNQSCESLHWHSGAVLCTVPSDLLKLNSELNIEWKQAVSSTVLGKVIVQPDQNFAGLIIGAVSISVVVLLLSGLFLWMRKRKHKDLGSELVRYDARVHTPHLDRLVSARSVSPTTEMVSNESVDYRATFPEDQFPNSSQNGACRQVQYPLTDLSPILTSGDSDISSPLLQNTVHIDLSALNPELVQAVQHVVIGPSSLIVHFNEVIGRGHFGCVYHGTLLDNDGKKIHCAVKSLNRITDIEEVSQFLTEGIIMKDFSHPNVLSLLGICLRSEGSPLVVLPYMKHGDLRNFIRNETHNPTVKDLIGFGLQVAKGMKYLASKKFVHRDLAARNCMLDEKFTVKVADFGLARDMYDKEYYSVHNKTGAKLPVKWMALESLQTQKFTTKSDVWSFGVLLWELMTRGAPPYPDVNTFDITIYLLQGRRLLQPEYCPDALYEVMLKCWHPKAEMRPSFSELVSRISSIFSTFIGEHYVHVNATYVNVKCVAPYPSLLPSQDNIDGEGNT
# UniProt P16070, residues 21-742: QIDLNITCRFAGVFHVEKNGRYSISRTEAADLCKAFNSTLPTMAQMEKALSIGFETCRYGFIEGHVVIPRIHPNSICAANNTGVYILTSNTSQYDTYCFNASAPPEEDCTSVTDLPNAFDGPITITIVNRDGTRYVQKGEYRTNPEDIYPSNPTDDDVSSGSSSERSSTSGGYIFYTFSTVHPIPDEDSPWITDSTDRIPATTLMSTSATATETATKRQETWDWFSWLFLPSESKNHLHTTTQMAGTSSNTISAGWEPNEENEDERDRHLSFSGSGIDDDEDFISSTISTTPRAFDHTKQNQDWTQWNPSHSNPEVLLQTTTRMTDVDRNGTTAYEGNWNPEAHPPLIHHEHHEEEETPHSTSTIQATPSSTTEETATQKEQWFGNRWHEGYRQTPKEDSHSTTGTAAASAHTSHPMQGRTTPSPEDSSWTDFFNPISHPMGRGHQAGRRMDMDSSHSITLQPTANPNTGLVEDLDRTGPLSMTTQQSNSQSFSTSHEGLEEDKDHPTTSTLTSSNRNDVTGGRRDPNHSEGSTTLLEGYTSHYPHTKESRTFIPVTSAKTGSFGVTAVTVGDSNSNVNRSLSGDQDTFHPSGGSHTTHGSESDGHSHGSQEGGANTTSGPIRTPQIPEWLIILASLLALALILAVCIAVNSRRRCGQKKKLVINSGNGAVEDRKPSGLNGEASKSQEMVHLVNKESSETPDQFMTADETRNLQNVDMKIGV
# UniProt B5Z6S0: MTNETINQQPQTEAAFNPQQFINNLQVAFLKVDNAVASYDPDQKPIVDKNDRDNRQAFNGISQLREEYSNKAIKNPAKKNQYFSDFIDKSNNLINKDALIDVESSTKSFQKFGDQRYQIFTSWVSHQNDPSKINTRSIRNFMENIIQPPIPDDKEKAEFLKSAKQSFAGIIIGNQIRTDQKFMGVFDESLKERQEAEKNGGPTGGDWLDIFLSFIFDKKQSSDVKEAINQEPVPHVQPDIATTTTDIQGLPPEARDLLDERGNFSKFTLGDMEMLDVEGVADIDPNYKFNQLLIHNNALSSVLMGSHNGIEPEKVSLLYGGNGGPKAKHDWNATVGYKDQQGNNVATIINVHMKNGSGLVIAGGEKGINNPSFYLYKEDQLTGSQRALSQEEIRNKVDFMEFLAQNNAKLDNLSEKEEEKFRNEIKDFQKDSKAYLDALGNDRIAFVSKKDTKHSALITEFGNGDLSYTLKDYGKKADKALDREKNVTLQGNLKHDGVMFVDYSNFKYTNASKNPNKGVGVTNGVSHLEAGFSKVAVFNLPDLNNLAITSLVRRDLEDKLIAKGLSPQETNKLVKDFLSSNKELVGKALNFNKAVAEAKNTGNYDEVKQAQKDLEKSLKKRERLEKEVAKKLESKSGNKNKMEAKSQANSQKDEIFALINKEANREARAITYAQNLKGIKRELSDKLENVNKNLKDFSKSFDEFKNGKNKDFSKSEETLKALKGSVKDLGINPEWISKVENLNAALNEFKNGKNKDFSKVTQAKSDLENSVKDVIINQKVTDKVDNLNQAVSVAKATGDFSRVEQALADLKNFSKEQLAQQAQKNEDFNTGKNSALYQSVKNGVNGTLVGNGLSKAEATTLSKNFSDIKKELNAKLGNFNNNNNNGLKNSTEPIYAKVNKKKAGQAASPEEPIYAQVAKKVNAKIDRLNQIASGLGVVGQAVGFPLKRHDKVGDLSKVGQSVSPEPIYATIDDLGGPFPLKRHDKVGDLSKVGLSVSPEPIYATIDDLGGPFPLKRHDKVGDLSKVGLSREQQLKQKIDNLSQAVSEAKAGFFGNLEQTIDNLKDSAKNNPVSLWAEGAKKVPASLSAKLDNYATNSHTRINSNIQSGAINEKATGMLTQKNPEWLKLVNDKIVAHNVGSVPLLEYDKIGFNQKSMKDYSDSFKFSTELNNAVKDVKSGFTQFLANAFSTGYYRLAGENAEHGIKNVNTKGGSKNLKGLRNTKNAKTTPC
# These are yes or no findings as the source states them, for the method shown. Binding seen in cells or lysates may run through a third protein. Some entries that bind do so weakly or less than the wild type.
# Experiments:
# [1] = molecular target: tyrosine kinase c-Met receptor (human) (human (endogenous in hFGOs)) (UniProt P08581); experiment: co-IP; lysates (M-PER) of hFGOs infected with H. pylori G27 for 24 h; anti-c-Met antibody 1:50 overnight at 4 C, Protein A/G Plus agarose; Western blot
# [2] = molecular target: tyrosine kinase c-Met receptor (human) (human (endogenous in hFGOs)) (UniProt P08581); experiment: co-IP; lysates of hFGOs pre-treated with CD44v6 neutralizing antibody (100 ng/ml, 1 hour) before H. pylori G27 infection; anti-c-Met immunoprecipitation, Western blot
# [3] = molecular target: tyrosine kinase c-Met receptor (mouse) (mouse (endogenous in mFGOs)) (UniProt P16056); experiment: co-IP; lysates of mFGOs derived from CD44-deficient mice, H. pylori G27 infected for 24 h; anti-c-Met immunoprecipitation, Western blot for TyrP, c-Met, CagA, CD44 and HGF
# [4] = molecular target: tyrosine kinase c-Met receptor (mouse) (mouse (endogenous in mFGOs)) (UniProt P16056); experiment: co-IP; lysates (M-PER) of mFGOs infected with H. pylori G27 for 24 h; anti-c-Met antibody 1:50 overnight at 4 C, Protein A/G Plus agarose; Western blot for TyrP, c-Met, CagA, CD44 and HGF
Substance,binding [1],binding [2],binding [3],binding [4]
CD44 (human) (from UniProt P16070 21-742) (receptor),binds,–,–,–
CagA of Helicobacter pylori strain G27 (from UniProt B5Z6S0 1-1230),binds,binds,binds,binds
